Results reported in patent US20260199343A1 (Kadmon Corporation, LLC, priority 2022, published 2026).
At least one compound was matched to its structure with a doubt left.

How the values were obtained:
HD NK cells [1] = experiment: HD NK cell viability, belumosudil vs Y27632 (Example 5); format: cell-based, human; conditions: 10-40 μM, after 4 days of treatment
From the text: (§1) Healthy donor buffy coats were supplied by EFS Ile de France. Immediately after reception, the qualified buffy coats were put under gentle agitation overnight at room temperature. The following day, peripheral blood mononuclear cells (PBMCs) were isolated by Ficoll (Cytiva #17-1440-02) density gradient centrifugation. Human NK cells were purified from PBMCs with the MACSXpress Whole Blood NK cell isolation kit from Miltenyi Biotec (#130-127-695) by negative selection using manual magnetic labelling and the MACSxpress separator (Miltenyi Biotec #130-098-308). Then, purified NK cells were cultured in RPMI1640 medium supplemented with 10% foetal bovine serum (FBS) (Eurobio #CVFSVF06-01) and 1% of L-Glutamine (Gibco #25030-081). The cells were left to rest overnight at 37° C. with 5% CO2 before being used. […]
(§2) To additionally assess cell viability, DAPI (Miltenyi Biotec, #130-111-570) was added in each well before plate reading by flow cytometry. Samples were then analyzed with the MACSQuant 16 flow cytometer (Miltenyi Biotec).
(§3) Data were analyzed with FlowJo software as shown in FIG. 3: (FIG. 3A) MOLP-8 cells excluding debris was gated, followed by gating for single cells (FIG. 3B). From the single cells, viable DAPI^neg cells were quantified (FIG. 3C).

MM1S cells = experiment: Growth inhibition of MM1S cells (CellTiterGlo / Incucyte confluency); format: cell-based, human; conditions: 5-6 days
Experimental: (§4) On Day 1, the cells were plated at 3,000 cells per well (50 ul) using 384w plate (Costar, 3765) pre-coated with Poly-D-Lysine, spun down at 300 g for 1 min at room temperature and transferred in Incucyte S3 (37° C.; 5% CO2; every 2 h kinetic read). […] Cells were further incubated in Incucyte S3 (Sartorius) for an additional 5-6 days at 37° C., 5% CO2 with the same kinetic readings. At the end, proliferation was measured by added CellTiterGlo (Promega) to assess cell viability or by using Incucyte measuring cell confluency over time. Cell growth was normalized to DMSO (100%) and staurosporine (Sigma; […]) 1 uM (0%)).

MM.1R RFP cells = experiment: Incucyte long-term cytotoxicity against MM.1R RFP cells; format: cell-based, human; conditions: belumosudil 1.1 or 3.3 μM, up to 96 hours
[2] = tested on: STAT3/STAT5 phosphorylation, Th17/Treg balance; conditions: via regulation of STAT3/STAT5 phosphorylation and shifting Th17/Treg balance; cited from earlier work
MOLP-8 MM cells = experiment: Annexin V / 7-AAD apoptosis of MOLP-8 MM cells; format: cell-based, human; conditions: 10, 20 and 25 μM; 2, 3 and 4 days; dose-dependent
LP-1 cells = experiment: Growth inhibition of LP-1 cells (CellTiterGlo / Incucyte confluency); format: cell-based, human; conditions: LP1, 5-6 days
Experimental: as §4

RPMI8226 cells = experiment: RPMI8226 viability by DAPI flow cytometry (Example 2); format: cell-based, human; conditions: starting at 10 μM, after 4 days of treatment
[3] = tested on: MM cell lines (LP1, MM1R, MM1S, OPM2); experiment: CellTiter-Glo cell viability, panel of MM cell lines; format: cell-based, human; conditions: 8 days treatment
Experimental: Cell viability was measured by CellTiter-Glo, Luminescent Cell Viability Assay normalized with DMSO.

MOLP-8 cells = experiment: MOLP-8 viability by DAPI flow cytometry (Example 2); format: cell-based, human
chronic GVHD = conditions: in vivo; cited from earlier work
LP1 [4] = experiment: CellTiter-Glo cell viability, LP1; format: cell-based, human; conditions: 8 days treatment; IMiD resistant cell line
HD NK cells [5] = experiment: HD NK cell viability by DAPI flow cytometry (Example 2); format: cell-based, human; conditions: 10-40 μM, after 4 days of treatment
From the text: as §1, with “fetal” for “foetal”, “#25030-081).” for “#25030-081). The cells were left to rest overnight at 37° C. with 5% CO2 before being used.”
To additionally assess cell viability, DAPI (Miltenyi Biotec, #130-111-570) was added in each well before plate reading by flow cytometry. Samples were then analyzed with the MACSQuant 16 flow cytometer (Miltenyi Biotec). Data were analyzed with FlowJo software using the following strategy shown in FIGS. 3A-3D: (A) MOLP-8 cells excluding debris were gated, followed by gating for single cells (B), from single cells, viable DAPI^neg cells were quantified (C), and from DAPI^neg cells, the expression of CD38 was quantified with FITC fluorochrome (D) and expressed as median of fluorescence intensity (MFI).

LP1 [6] = experiment: LP1 viability by DAPI flow cytometry (Example 2); format: cell-based, human; conditions: starting at 10 μM, after 4 days of treatment
LP-1 RFP cells = experiment: Incucyte long term cytotoxicity against LP-1 RFP cells; format: cell-based, human
CD38 on MOLP-8 cells = experiment: CD38 expression on MOLP-8 cells by flow cytometry; format: cell-based, human
pro-fibrotic signaling = conditions: in vitro; cited from earlier work
MOLP-8 = MOLP-8 viability, belumosudil vs Y27632 (Example 5); format: cell-based, human; conditions: 10-40 μM (belumosudil effect starting at 10 μM), after 4 days of treatment
Experimental: MOLP-8 (DSMZ, #ACC569) were maintained in RPMI1640 complete medium (RPMI1640 supplemented with 20% FBS—Eurobio #CVFSVF06-01 and 1% L-glutamine—Gibco #25030-081), incubated at 37° C. with 5% CO2 before being used.
(§5) Before treatment, MM cells were centrifuged for 5 minutes at 300 g, counted, and resuspended in RPMI1640 complete medium to have 50000 cells/100 μl.
(§6) Compounds and cells were then added to the appropriate wells of a Corning™ 96-Well Clear Ultra Low Attachment Microplate (Corning, #7007) (final volume of each well: 200 μl). […] MOLP-8 or LP-1 or RPMI-8226 or HD NK cells (50000 cells/well) were then added to the appropriate wells. The plate was then centrifuged for 1 minute at 100 g before being placed into an incubator at 37° C. with 5% CO2 for up to 4 days.
After treatment, cells were collected and added to U bottom plates for antibody labelling. […]
as §2, §3

C-myc protein = experiment: Western blot of C-Myc in LP1 cells; format: cell-based, human; conditions: 24 hours of treatment
RPMI-8226 = RPMI-8226 viability, belumosudil vs Y27632 (Example 5); format: cell-based, human; conditions: 10-40 μM (belumosudil effect starting at 10 μM), after 4 days of treatment
Experimental: RPMI-8226 (ATCC, #CCL155) were maintained in RPMI1640 complete medium, incubated at 37° C. with 5% CO2 before being used.
as §5, §6
After treatment, cells were collected and added to U bottom plates for antibody labelling.
Then, cells were centrifuged for 5 minutes at 300 g, the supernatant removed and 200 μl of AutoMACS Running buffer (Miltenyi Biotec, #130-091-221) added to each well. […]
as §2, §3

LP-1 = LP-1 viability, belumosudil vs Y27632 (Example 5); format: cell-based, human; conditions: starting at 5 μM, after 4 days of treatment
RPMI-8226 RFP cells = experiment: Incucyte long-term cytotoxicity against RPMI-8226 RFP cells; format: cell-based, human; conditions: belumosudil 1.1 or 3.3 μM, up to 96 hours

In the case of `CC(C)NC(=O)COc1cccc(-c2nc(Nc3ccc4[nH]ncc4c3)c3ccccc3n2)c1` [belumosudil, 2-{3-[4-(1H-indazol-5-ylamino)-2-quinazolinyl]phenoxy}-N-(propan-2-yl) acetamide], the “HD NK cell viability” value (HD NK cells [1]) is reported as “neither belumosudil nor Y27632 impact HD NK cell viability”, the “growth inhibition, single agent” value (MM1S cells) is reported as “single agent growth inhibition activity” and the “killing of MM.1R RFP cells over time” value (MM.1R RFP cells) is reported as “induces killing of MM.1R RFP cells”. The proinflammatory responses [2] was “down-regulated proinflammatory responses”, the “apoptosis of MOLP-8 (early and late apoptotic cells)” value (MOLP-8 MM cells) was “induces apoptosis” and the “growth inhibition, single agent” value (LP-1 cells) was “single agent growth inhibition activity”. The “viability of RPMI8226 cells” value (RPMI8226 cells) was “strongly reduces viability”, the “growth inhibition of MM cell lines” value [3] was “growth inhibition, in dose dependent manner” and the MOLP-8 cells viability (MOLP-8 cells; 1.1 and 3.3 μM) was “no impact”. For the same molecule, the “MOLP-8 cells viability (reduction)” value (MOLP-8 cells; 10, 20 and 25 μM, starting at 1 day after treatment) was “Limited impact”, the “activity in animal models of chronic GVHD” value (chronic GVHD) was “demonstrated activity” and the “growth inhibition on LP1” value (LP1 [4]) was “showed growth inhibition on LP1”. For the same molecule, the “HD NK cells viability” value (HD NK cells [5]) was “does not impact or has a very limited impact”, the “viability of LP1 cells” value (LP1 [6]) was “strongly reduces viability” and the “killing of LP-1 RFP cells over time” value (LP-1 RFP cells; belumosudil 1.1 or 3.3 μM (FIG. 14)) was “induces killing of LP-1 RFP cells”. The “killing of LP-1 RFP cells over time” value (LP-1 RFP cells; with or without HD NK cells, 1.1, 3.3 and 10 μM, up to 90 hours) was “induces killing of LP-1 in a dose dependent manner”, the “CD38 expression (MFI)” value (CD38 on MOLP-8 cells; belumosudil 10 μM, 3 and 4 days) was “increase of CD38 expression” and the “CD38 expression (MFI)” value (CD38 on MOLP-8 cells; belumosudil 20 μM and 25 μM) was “increase of CD38 expression on MOLP-8 but to a lesser extent as compared to 10 μM”. For the same molecule, the aberrant pro-fibrotic signaling (pro-fibrotic signaling) was “inhibited aberrant pro-fibrotic signaling”, the “viability of MOLP-8 (number of cells and % of live cells)” value (MOLP-8) was “reduces viability” and the C-myc protein level (C-myc protein) was “dramatic decrease”. For the same molecule, the “viability of RPMI-8226 (number of cells and % of live cells)” value (RPMI-8226) was “reduces viability”, the “viability of LP-1 (number of cells and % of live cells)” value (LP-1) was “reduces viability” and the “killing of RPMI-8226 RFP cells over time” value (RPMI-8226 RFP cells) was “induces killing of RPMI-8226 RFP cells”.
